# Whole data set: some 33,000 sequences, median “E-score (-0.5 to 0.5)” near -8e-05, cut for the highest 2% near 0.23. Some of the results follow.
# Molecular target: T1, Nrg2 (UniProt P38082)
# T1 sequence: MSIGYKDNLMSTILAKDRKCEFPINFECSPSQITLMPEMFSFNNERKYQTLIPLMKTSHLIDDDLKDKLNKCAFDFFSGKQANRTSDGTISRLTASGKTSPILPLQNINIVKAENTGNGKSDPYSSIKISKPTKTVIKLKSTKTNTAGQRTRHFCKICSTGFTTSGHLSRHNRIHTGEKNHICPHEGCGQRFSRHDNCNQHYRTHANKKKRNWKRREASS
# Assay: PBM E-score (8-mer binding enrichment) (E-score (-0.5 to 0.5)); higher = stronger / more preferred TF binding
# Conditions: protein concentration: 100 nM; construct: GST-full length
# Summary of the method: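 Bound GST-tagged yeast transcription factors, applied at about 100-200 nM to double-stranded universal all-10-mer Agilent arrays, were detected with fluorescent anti-GST. Scans were normalised with masliner. A modified Wilcoxon-Mann-Whitney statistic, the E-score, was assigned to each ungapped eight-base word pooled with its reverse complement by the Universal PBM Analysis Suite.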
row,Sequence,PBM E-score
1,AACGTCTC,0.0176
2,GGAGGATA,-0.0422
3,ATCTCGAA,0.174
4,ATTTCTGG,0.0738
5,CTGTGAGC,0.101
6,TACACGTA,0.0289
7,CCCTACAC,0.0173
8,CGTCATCA,-0.0517
9,AATGAGGT,0.0535
10,CAACGCAC,0.143
11,ATAATAGC,-0.0441
12,CTAGTCTC,-0.139
13,AGTCTACA,-0.264
14,CAACTGTG,0.02
15,AGGGGGCG,-0.162
16,AGTTCAAC,0.103
17,CATTAGGC,-0.102
18,CTCCAACA,0.0834
19,CATACGAC,0.0269
20,ATACTCAA,0.136
21,CATGCCGA,0.158
22,AGCGCTAA,0.0958
23,CTCTATAC,-0.0911
24,ACCGTTTA,-0.129
25,ATTAGTGG,0.15

row,Sequence,PBM E-score
1,AAGTTAAG,-0.0112
2,TAATACGA,0.00217
3,TCTAGAAA,-0.0493
4,AGACCTAA,-0.109
5,CAATCCCC,-0.00856
6,GATATGAC,0.132
7,AAATACAG,0.0793
8,GGACTCCC,-0.169
9,AATGTGGT,-0.0285
10,AATAACCC,0.189
11,TAACAAGA,-0.00432
12,CGGACTCA,0.0398
13,AATTCGCT,0.318
14,ATGCAGTG,0.0198
15,AGCGTGAG,0.0143
16,AGGGCTTA,-0.186
17,ACCTTCCA,-0.0336
18,ACGACCTA,0.0156
19,AGGGGCTA,0.0283
20,CGTCACTC,-0.18
21,TCACGCAA,0.0813
22,CGTGCCAA,-0.033
23,GGCGGCAC,0.0328
24,CCCTGTTA,0.169
25,GAGCTGTA,-0.149

row,Sequence,PBM E-score
1,AGTGGTGG,-0.0924
2,AAATAAAT,0.142
3,CATGTGCG,0.0824
4,TATAGATA,-0.0841
5,CTGGGTCA,-0.13
6,ACCTATAC,-0.044
7,ATTGTAAA,-0.0203
8,ATTCAACG,0.163
9,ATGGACTC,-0.0223
10,GGGGCAAC,-0.0671
11,AGTTTTCG,0.147
12,GGCCTGCA,-0.134
13,ATACTTAG,0.0678
14,CCCTCATA,-0.0373
15,TACCACCA,-0.0876
16,ATTTCTGA,-0.0112
17,GCATGGGC,-0.153
18,CTAAACGC,-0.0415
19,AAGCCCCC,-0.31
20,ACCGTAAC,-0.269
21,AGACTAAC,-0.0882
22,CGGGTCTC,-0.0571
23,GGGAGTTA,0.0101
24,CGGACCAA,0.0777
25,AACCAGAT,0.0767

row,Sequence,PBM E-score
1,GTTTCTGA,0.178
2,ATAGAATG,0.0622
3,CGCGAGCA,0.0427
4,CCCTAAAC,-0.122
5,TGCTCGAA,0.0926
6,CCACGCTC,-0.206
7,ACAATGAG,-0.131
8,CTTCACAA,-0.111
9,ACGGTGAC,-0.213
10,ATCGACAC,-0.0125
11,GCGAAGTA,0.157
12,CACGGTGG,-0.0259
13,ACCGGGGC,-0.0455
14,AAGCGGAC,-0.0305
15,CGAGAAAC,0.0922
16,GACCGCGC,0.0601
17,ATCGGGAG,-0.176
18,ATTCGCTG,0.0561
19,AACCGCTT,-0.102
20,AGGGCCCG,0.0729
21,TACCATGA,-0.0364
22,ACAGACAT,0.0117
23,ACGTTTGC,0.0465
24,GTCTTTCA,-0.177
25,ACCAATCA,0.0386

row,Sequence,PBM E-score
1,ACACTTTA,0.0666
2,CAATTAGC,0.0178
3,CCGTCATA,-0.0182
4,CTGATAAG,0.144
5,ACTAACTC,-0.161
6,ACGTCGAT,0.062
7,CCACGCCC,-0.275
8,CCCCCACA,-0.377
9,ATTCTCCA,0.0311
10,AGACGGGA,-0.078
11,ACTTGTCT,-0.0659
12,CTGCCGAC,0.11
13,CAACCTGG,0.0094
14,CCCCGGAA,-0.0849
15,AAATCAGA,0.129
16,ACATAAAA,0.0331
17,CCTACCCC,-0.0956
18,ATCTTTCG,0.0875
19,AACAGTGG,0.134
20,GATAGTAC,0.0894
21,GAGGTTTA,-0.00946
22,GTAATAAC,0.0923
23,AGAGGTGC,-0.259
24,CTAGATGA,-0.0603
25,CAGGCACA,-0.0982

row,Sequence,PBM E-score
1,GTGCTGGA,-0.148
2,ATGCCGGC,-0.0209
3,GCGACCGC,-0.0925
4,ACGCTAAC,-0.0216
5,GCAAGATA,0.229
6,CCTGTGGA,-0.0981
7,ACCCCGCG,0.0364
8,GTAGCAGA,0.0929
9,CCCCCAAC,-0.342
10,TAGAACCA,-0.0179
11,AAGGAAGC,-0.16
12,GACGCCAC,-0.188
13,ATCGGACC,0.136
14,ATTTAGAG,0.0824
15,AAGCGTTA,-0.0203
16,CAATTTGC,-0.0607
17,GCCCTTCC,-0.188
18,AGTGAGTC,-0.00332
19,ACCTCAGT,0.0369
20,AGCAGTGA,0.234
21,AGGGTCGA,0.262
22,CCTCAAAG,-0.153
23,ATGGTGGA,-0.0629
24,CCGTTTAG,-0.126
25,AACTGTCT,0.0381

row,Sequence,PBM E-score
1,ATATGCAG,-0.236
2,GCTGGTCA,-0.121
3,GACGACCA,0.00397
4,AATCAGCA,0.0692
5,ACAACATA,0.268
6,AGGAAACA,0.0307
7,ACCAACGC,-0.09
8,AGGATAAA,0.106
9,AATTCGCG,0.202
10,ATTGTTAG,0.174
11,GTATTCTA,0.0921
12,CTGATGGC,-0.0852
13,TAGCTCGA,0.17
14,AATTTGTA,0.173
15,CCTTCTGC,-0.0658
16,ACCTGCGA,-0.0464
17,AACTAACT,0.0521
18,ATAGTTCC,0.118
19,CCGGCCTC,-0.215
20,CATCTCGA,0.0545
21,GCCGGTAA,0.0975
22,TCAAAAGA,0.0913

# Some of the entries so far, as tab-separated lines:
row	Sequence	PBM E-score
19	CCGGCCTC	-0.215
20	CATCTCGA	0.0545
21	GCCGGTAA	0.0975

# Reformatted as tab-separated lines: entries from further up.
row	Sequence	PBM E-score
14	CAACTGTG	0.02
15	AGGGGGCG	-0.162
16	AGTTCAAC	0.103
17	CATTAGGC	-0.102
18	CTCCAACA	0.0834
19	CATACGAC	0.0269
20	ATACTCAA	0.136
